Experimental data reported in paper PMC10163288.
The other results are listed elsewhere or left out.

B1: il2ra_site1_2b5i_sap_20_mot_24158596531fe56b9a92a73954708cce_0001_af2_000000247_0001_36_50_H_._a237db91e5dae9a764afea8a79d812a9_0001_0001_0000200022_0000001_0_0 … (protein)
chain: SEEELLEELAKLAGVPPEVIERAVEVAAKQLEDPPEEALEALRKDLEKLGDPRHVKLAVELLARK
B2: il2ra_site2_3nfp_normal_mot_HHH_b1_06797_000000164_0001_24_40_H_._HHH_b1_00354_0001_0000100007_0000001_0 (protein)
chain: SSSSSSKAEEYIRAVIELAKRIEDPEVARRSLRLAIELAHLIRNEELLEELEELLEQLESSSSSS
B3: il2ra_site1_3nfp_normal_mot_1cd86ef9f1587ae5d14d35bbbd8e7f1d_0001_1_000000087_0001_34_49_H_._HHH_b1_04651_0001_0000700037_0000001_0_af2pred_0001_af2pred (protein)
chain: SSSSDIEEEVEELEEKARQLIEKGDSREFDKVLRRLQELARELDDPRIKEIAEELLRLAHSSSSS
B4: il2ra_site2_2erj_sap_10_mot_HHH_b1_04875_000000046_0001_21_38_H_._HHH_b2_00017_0001_0000400004_0000001_0_0001 (protein)
chain: SSSSDVEEEVEELLEQAEKAWREGDLHAVYRLAVEALHLASKNQDPELQRLVAEVFEKLQSSSSS
B5: il2ra_site2_2erj_sap_24_mot_ca9fcc9ace360711d783d1260e4fbff1_0001_1_af2_000000007_0001_15_32_H_._HHH_b1_06826_0001_0000200029_0000001_0_0001 (protein)
chain: DENAEELLKEALKLAPPEEVLRSRLEYLERFLGDPERAEEILKEVVKEVLNVPPEEARRLIEEAR
B6: il2ra_site1_1z92_normal_mot_HHH_b2_05038_af2_000000006_0001_39_52_H_._c788f694b6024b8d85290983deed1e3f_0001_0001_0000100008_0000001_0 (protein)
chain: SLEEKLKELLEELGVPPELIRILLQYIEFARASGLPPEEVLERVRELVERAGSEELSQALELLKK
B7: il2ra_site2_2erj_normal_mot_d90d487aea70c45ec8d535bcd4a5bcdf_0001_1_000000234_0001_37_51_H_._f36577d69a6146de1eed06bfb95d352c_0001_1_0001_0000300032_0000001_0 (protein)
chain: DIEEFIKEALRLAAEQGTLEEDVRLRLRYLEIFLGDPEEALRRLRELLEELGDPDAEKVLEELER
B8: il2ra_site2_3nfp_sap_19_mot_ems_3hC_936_0002_af2_000000049_0001_43_60_H_._76e6e8f7232a9e65eeaab5ff8ecb4c96_0001_0001_0000100003_0000001_0_0001 (protein)
chain: SSSSSKAEEYLRIALELAKEAREDGDPESARRILHIALAMAESQRDEEIEKEVERLLEEVSSSSS
B9: il2ra_site1_1z92_sap_8_mot_HHH_b2_05172_af2_000000284_0001_1_18_H_._HHH_b1_05687_af2_0001_0000100001_0000001_0_0001_af2pred_0001_af2pred (protein)
chain: SLEEELKELAEQLGIPPEEVELILEIAEKDSGDPRLARRFLAVIILAAVKKNDPRYVESLRDAAS
B10: il2ra_site1_1z92_sap_17_mot_HHH_b1_07624_af2_000000183_0001_1_21_H_._HHH_b2_00527_0001_0000100009_0000001_0_0001 (protein)
chain: SSSSNFAEFAREMARALFKLIEISGNPRARERLEMLLRDLEMLGNEEVIEEVEELIEQLRNSSSS
B11: il2ra_site2_2erj_sap_24_mot_HHH_b2_04375_af2_000000283_0001_22_38_H_._HHH_b2_05413_af2_0001_0000200004_0000001_0_0001 (protein)
chain: SSSSSEAYEEAARASLRALELFKRGNPEEAREVLEEALRLAEELNDEAAKRYLEFLEKDLDSSSS
B12: il2ra_site1_1z92_normal_mot_22370d59370c406a0c205a431f537cfa_0001_000000027_0001_1_14_H_._HHH_b1_00743_af2_0001_0000300005_0000001_0_af2pred_dldesign_0_af2pred (protein)
chain: SSSDDEEILRTMKEISRLYAAGRPAEAAAAAAALRARLTAAGETGAVADLDKYVAFVRARASSSS
B13: il2ra_site1_3nfp_sap_16_mot_22370d59370c406a0c205a431f537cfa_0001_af2_000000271_0001_52_65_H_._306e237eb68499aa2c78cb84ccc46c3c_0001_0001_0000100011_0000001_1_0 … (protein)
chain: SSSSREAELAEFAIRVVAKLQLELGLSEEQAQELLELAERLVRQGYSEEEIEEILEKLARELSSS
B14: il2ra_site2_3nfp_sap_11_mot_HHH_b2_00746_000000285_0001_20_36_H_._HHH_b1_04862_0001_0000300041_0000001_0_0001 (protein)
chain: SSSDREERIEELFEEVRELLERGDPTEATQLLLEMAELASKLDDPELARLVLELYKLARELYSSS
B15: il2ra_site2_3nfp_sap_17_mot_HHH_b1_05627_af2_000000038_0001_43_56_H_._HHH_b2_05199_af2_0001_0000300015_0000001_0_0001 (protein)
chain: SSSSDREEVRKLLEELEEAVERNDDELFRELLRRIAQLIFEIGDFELFAILAELRAKFVQSSSSS
B16: il2ra_site1_1z92_normal_mot_HHH_b2_07217_af2_000000241_0001_1_19_H_._HHH_b1_07228_0001_0000100005_0000001_0 (protein)
chain: SSSSDKEEESAEYHRELLEAALKLGSEKALRLLLRDIELFLKRTKDEELERLMEEVEEELSSSSS
B17: il2ra_site2_3nfp_sap_18_mot_7f6a3539c8daa08639e4cdbcc6f77908_0001_af2_000000032_0001_16_31_H_._HHH_b1_04314_af2_0001_0000300027_0000001_0_0001 (protein)
chain: SSSSDKSEEYLRIALELLEEAIKAGDEEAARSHLEVAKAAAESHNDEEVEERLEELEELLSSSSS
B18: il2ra_site1_2b5i_sap_6_mot_HHH_b1_00824_af2_000000079_0001_41_56_H_._HHH_b2_00132_af2_0001_0000100012_0000001_0_0001_af2pred_0001_af2pred_1 (protein)
chain: SSSSSEESEELLELLEEAQRLLENGNPEEAREVLKEAYRLAEEAGNRSLLKIIESALRQFSSSSS

target: il2ra, P01589; assay: yeast display titration

Apparent Kd, inactive:
B1 no binding seen
B2 no binding seen
B3 no binding seen
B4 no binding seen
B5 no binding seen
B6 no binding seen
B7 no binding seen
B8 no binding seen
B9 no binding seen
B10 no binding seen
B11 no binding seen
B12 no binding seen
B13 no binding seen
B14 no binding seen
B15 no binding seen
B16 no binding seen
B17 no binding seen
B18 no binding seen

As a working copy, part of the list above:
Apparent Kd, inactive:
B14 no binding seen
B15 no binding seen
